From paper PMC7819943, “Rice protein-binding microarrays: a tool to detect cis-acting elements near promoter regions in rice” come the findings set out here.

Protein sequences, listed by entry. Tags and fused reporters are not part of them.
UniProt Q0JBA9, entry or part of it: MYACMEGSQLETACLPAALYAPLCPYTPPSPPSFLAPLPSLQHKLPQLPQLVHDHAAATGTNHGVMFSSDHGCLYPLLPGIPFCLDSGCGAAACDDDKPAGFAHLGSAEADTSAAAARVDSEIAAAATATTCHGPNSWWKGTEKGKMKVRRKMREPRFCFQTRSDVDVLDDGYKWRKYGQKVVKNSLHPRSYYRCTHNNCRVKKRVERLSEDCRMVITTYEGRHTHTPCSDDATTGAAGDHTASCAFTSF

The other results are listed elsewhere or left out.

The target in this assay is OsWRKY34 (Oryza sativa, UniProt Q0JBA9 1-250). As to the kind of experiment: protein-binding microarray (RPBM); PBS, 2% BSA, 51.3 ng/ul salmon testes DNA, 50 uM zinc acetate, 200 nM TF, 25 C, 1 h; high values mean tight binding. As to conditions: protein: recombinant; tags: N-terminal polyhistidine and DsRed monomer fusion (pET32a); label: CyDye5-dUTP incorporated in the synthesized complementary strand; 3' TTTTT single-stranded linker to array surface; dsDNA, one strand shown. The method, boiled down:
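The binding signal is fluorescence intensity per feature, in arbitrary units, read on an Axon 4000B scanner. Polyhistidine- and DsRed-tagged transcription factors (N-terminal fusions) from E. coli BL21-CodonPlus were purified on Ni–NTA and applied at 200 nM for 1 h at 25 °C to a double-stranded, BSA-blocked custom Agilent array in buffer with 50 µM zinc acetate.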
In the case of “ATAGCATTGGTTTCTCGTTAGGTTCAGATATAGGAATAGACGGAGTCACCTAGTGCAG”, the binding signal was 9440 fluorescence intensity (a.u.). With “AGGGGAGGGGAGCACGAGCGGGGCGAGGTTCCCGATCCTGCGGAGTCACCTAGTGCAG” the figure was 8300 fluorescence intensity (a.u.). Consider “CATCGTTTTCCCCTGGGCGGGGTGGCCTGTTGTTATTAGCCGGAGTCACCTAGTGCAG”, for which the binding signal was 13700 fluorescence intensity (a.u.). The result for “TACCTCCGTTGCCAACGCCGGAATCCATCCATCCATCCCCCGGAGTCACCTAGTGCAG” reads 8080 fluorescence intensity (a.u.); that for “CCCTTTTCATGGCTTTTCATGCAGCTCTTTTGAGTCGATCCGGAGTCACCTAGTGCAG”, 9590 fluorescence intensity (a.u.); that for “CCCACACTACGGTCAACATTGTACAATAATAGACGCCCAGCGGAGTCACCTAGTGCAG”, 8110 fluorescence intensity (a.u.). For the sequence “GACCTTTGGAACTTTGACTGTAACCCCAACATAGCTTATTCGGAGTCACCTAGTGCAG”, the binding signal was 8390 fluorescence intensity (a.u.). With “ACCCTAGCTCTAGCCCAATATATACGTGGTATACGTGCAGCGGAGTCACCTAGTGCAG” the figure was 8210 fluorescence intensity (a.u.); with “ATTAACTGCATTTTCGTCGCATCCGGATTATGGAGCTCCACGGAGTCACCTAGTGCAG”, 8840 fluorescence intensity (a.u.). With “GTACATACCCGTATTATTTATCTGTCGCTATGTAGGATTTCGGAGTCACCTAGTGCAG” the figure was 10500 fluorescence intensity (a.u.).

Regarding “TTTGCATAGTCTTATATTTTCCATTATGCTATCTTTCAGTCGGAGTCACCTAGTGCAG”, the binding signal was 9530 fluorescence intensity (a.u.). The result for “CAACTATTGTACTGACCCAATTTCTTGCGTACCACCATGACGGAGTCACCTAGTGCAG” reads 8190 fluorescence intensity (a.u.). With “CCGCCCTTTTGACATAGGTGCACATGAAATTTCCTTGTTCCGGAGTCACCTAGTGCAG” the figure was 8820 fluorescence intensity (a.u.); with “GTGGTGGTGGTGATCTTTGGAGGGAGGAGCACAAGAAGCACGGAGTCACCTAGTGCAG”, 8670 fluorescence intensity (a.u.); with “CCTCTCGCTGTCTCGCACTCTCGCATCGACTTCTCCGTCACGGAGTCACCTAGTGCAG”, 11500 fluorescence intensity (a.u.).

Take “AATTTTTTCCAGACGGGTCAGTTATGGACCGTCTGAAATTCGGAGTCACCTAGTGCAG”: the binding signal was 8540 fluorescence intensity (a.u.). The result for “GGATTTCCTGGGCGGGCGGGGCGCGGATAAGGGGTGTGTGCGGAGTCACCTAGTGCAG” reads 17000 fluorescence intensity (a.u.); that for “GACGAACAAGCATAATCCGTATCTGTATCTTTGTTTATTTCGGAGTCACCTAGTGCAG”, 8980 fluorescence intensity (a.u.); that for “CTTGTGGGTCCCCAATTCACGAGTCATTGCTGTCACGCTCCGGAGTCACCTAGTGCAG”, 8070 fluorescence intensity (a.u.). For “TCTACATTTTGACTTAGCTTTCACCTTTGCATATGTTGCTCGGAGTCACCTAGTGCAG”, the binding signal was 8260 fluorescence intensity (a.u.). The result for “GAAGTGAAGGTGGCATTGATGCATGCACAGTTGATTTTCTCGGAGTCACCTAGTGCAG” reads 8110 fluorescence intensity (a.u.); that for “TGATTGCCTTGCCTTGCCTGCCTGCGTGTCATCAGTCGTCCGGAGTCACCTAGTGCAG”, 12400 fluorescence intensity (a.u.).

For “CGCCGCGCCCCGCCACGCTCCTCTCGCCTCGCCTCGGCGTCGGAGTCACCTAGTGCAG”, the binding signal is 9410 fluorescence intensity (a.u.). As for “CCCCAACGATGTTATCCCCTCACTATACTAATGTTATTCTCGGAGTCACCTAGTGCAG”, the binding signal was 8150 fluorescence intensity (a.u.). With “CGATTTTCAATTGGAACTTAACGCTGCCAATGCATATACTCGGAGTCACCTAGTGCAG” the figure was 8250 fluorescence intensity (a.u.); with “GTCATTCATGTGTTTTTCCTGTGTTTTGCAATCCTCTGTTCGGAGTCACCTAGTGCAG”, 13800 fluorescence intensity (a.u.). With “ACTCCTCGTTTTACTACTCCATCCCTTTCGCCTTCGACTTCGGAGTCACCTAGTGCAG” the figure was 10400 fluorescence intensity (a.u.); with “ACGGCGTCTATCCACTCACCCGACCGTTGCCTGTATGCGTCGGAGTCACCTAGTGCAG”, 8690 fluorescence intensity (a.u.). The result for “CTTCGGTGTACTTTTTTCTTTTCTAGTTCCTGGTTCTAATCGGAGTCACCTAGTGCAG” reads 18000 fluorescence intensity (a.u.); that for “ACTGCAAACACGGCTCTTCACCTGCGTTTACTCATCCAAGCGGAGTCACCTAGTGCAG”, 8400 fluorescence intensity (a.u.); that for “TTAGGTTTTTTTTTGGTGGTTTTGACCCCGGTATTATCCGCGGAGTCACCTAGTGCAG”, 10900 fluorescence intensity (a.u.).

In the case of “ACTAGAGTGACTCTACTCTACTCTCACAGGCTCTTCACCACGGAGTCACCTAGTGCAG”, the binding signal was 10500 fluorescence intensity (a.u.). On to “TTTAAGCATTGATAGTTTTTTTTTCCTTTCACTTTTGTTTCGGAGTCACCTAGTGCAG”, for which the binding signal was 9990 fluorescence intensity (a.u.).

Consider “GGAGCTCATCTGTAGGGGAGGGAGGGCGTCGACGAGGGAGCGGAGTCACCTAGTGCAG”, for which the binding signal was 8840 fluorescence intensity (a.u.). With “TCCAGCCGCCCCACCCACCGTTCCAGCCGCTCGTGCCACTCGGAGTCACCTAGTGCAG” the figure was 8740 fluorescence intensity (a.u.); with “CAATTTGTTGGTTGGTGGTGTTGTGGTGATGTGATTGTTGCGGAGTCACCTAGTGCAG”, 9750 fluorescence intensity (a.u.); with “GATATAGGACATCTCTCAATTTACAAAACCGTTCGCTTTACGGAGTCACCTAGTGCAG”, 9210 fluorescence intensity (a.u.). With “CATGTGAGTGTTTATAGAGGTGAGTGTGCGTGTGTGCATACGGAGTCACCTAGTGCAG” the figure was 8850 fluorescence intensity (a.u.); with “TCTTCCTTCTGCACTCGCTTCCAGCCCTAACCCTAGCCACCGGAGTCACCTAGTGCAG”, 9320 fluorescence intensity (a.u.).

For the sequence “TTTTTTGCACAACTCAATACACTTTATAGGATGTCTATTGCGGAGTCACCTAGTGCAG”, the binding signal was 8150 fluorescence intensity (a.u.). Consider “GCACCTGGTAACGATTAGCCCTGCCTAGGTCTGTCTATTTCGGAGTCACCTAGTGCAG”, for which the binding signal is 8500 fluorescence intensity (a.u.). “GGACGCGCGTGGTGGGGTCTGGGTGGCAGCGGCGCGGCGCCGGAGTCACCTAGTGCAG”: the binding signal was 9980 fluorescence intensity (a.u.).
